Results from PubChem BioAssay AID248 (DTP/NCI, 2004).
The list is a part of this screen's results and no random one: it gathers tests that were run many times, whatever their T/C, doses with no T/C, and many T/C values between a quarter and a half above the control. Other doses and runs of a compound stand elsewhere. T/C is the treated group as % of the vehicle group. Some doses have a count of surviving animals in place of a T/C: the source holds a T/C of zero for them, seemingly a mark for toxic or unscored doses. Some doses without a T/C left all or most animals alive at the check, yet need not have been tolerated: survival well below the control is almost never listed, so the zero probably covers shortened survival too. Survivors were counted at the toxicity check, usually on the fifth day, unless a day is given; later deaths do not show. Schedule codes are those of the source, taken here to give the interval after Q, in days (D) or hours (H), and the number of doses after X. Some entries were tested several times; their values stand side by side, smallest first. Some schedules carry Z or #; the key to these is not given. For survival time, this PubChem deposit counts one and a half times the control or more as active, and values a quarter to a half above the control carry no call in these data; other NCI protocols may use other cut-offs.

System: L1210 leukemia ip in BDF1 mice, survival T/C
Test: NCI In Vivo Anticancer Drug Screen. Data for tumor model L1210 Leukemia (intraperitoneal) in B6D2F1 (BDF1) mice
Conditions: T/C endpoint: mean survival time, higher T/C = longer survival
[1] = dose: 200.0 mg/kg/injection, schedule: Q04DX003 (ip), vehicle: Klucel (hydroxypropylcellulose) (HPC)
[2] = dose: 400.0 mg/kg/injection, schedule: Q04DX003 (ip), vehicle: Klucel (hydroxypropylcellulose) (HPC)
[3] = dose: 100.0 mg/kg/injection, schedule: Q01DX009 (ip), vehicle: Klucel (hydroxypropylcellulose) (HPC)
[4] = dose: 200.0 mg/kg/injection, schedule: Q01DX009 (ip), vehicle: Klucel (hydroxypropylcellulose) (HPC)
[5] = dose: 400.0 mg/kg/injection, schedule: Q01DX009 (ip), vehicle: Klucel (hydroxypropylcellulose) (HPC)
[6] = dose: 400.0 mg/kg/injection, schedule: Q04DX003 (ip), vehicle: saline with Tween-80
[7] = dose: 400.0 mg/kg/injection, schedule: Q01DX001 (ip), vehicle: other
[8] = dose: 400.0 mg/kg/injection, schedule: Q01DX001 (ip), vehicle: saline
[9] = dose: 400.0 mg/kg/injection, schedule: Q04DX003 (ip), vehicle: saline

## COc1ccc2c3c1OC1C4(CCC5C(C2)N(CC2CC2)CCC351)OCCO4 (stereo unspecified)
dose: 150.0 mg/kg/injection, schedule: Q01DX009 (ip), vehicle: Klucel (hydroxypropylcellulose) (HPC)
  survivor count: 5 of 6
[1]
  survivor count: 6 of 6
dose: 225.0 mg/kg/injection, schedule: Q01DX009 (ip), vehicle: Klucel (hydroxypropylcellulose) (HPC)
  survivor count: 2 of 6
dose: 335.0 mg/kg/injection, schedule: Q01DX009 (ip), vehicle: Klucel (hydroxypropylcellulose) (HPC)
  survivor count: 0 of 6
[2]
  survivor count: 6 of 6

## CC(C)C1(Br)C(=O)NC(=O)NC1=O
dose: 25.0 mg/kg/injection, schedule: Q01DX009 (ip), vehicle: Klucel (hydroxypropylcellulose) (HPC)
  survivor count: 1 of 6 and 2 of 6
dose: 50.0 mg/kg/injection, schedule: Q01DX009 (ip), vehicle: Klucel (hydroxypropylcellulose) (HPC)
  survivor count: 0 of 6
[3]
  survivor count: 0 of 6
[4]
  survivor count: 0 of 6
[5]
  survivor count: 0 of 6

## Cc1cc(C)[c]([Hg][Cl])c(C)c1
dose: 25.0 mg/kg/injection, schedule: Q04DX003 (ip), vehicle: saline with Tween-80
  survivor count: 6 of 6
dose: 50.0 mg/kg/injection, schedule: Q01DX009 (ip), vehicle: saline with Tween-80
  survivor count: 0 of 6
dose: 50.0 mg/kg/injection, schedule: Q04DX003 (ip), vehicle: saline with Tween-80
  survivor count: 0 of 6
dose: 100.0 mg/kg/injection, schedule: Q04DX003 (ip), vehicle: saline with Tween-80
  survivor count: 0 of 6 and 5 of 6
dose: 200.0 mg/kg/injection, schedule: Q04DX003 (ip), vehicle: saline with Tween-80
  survivor count: 0 of 6
[6]
  survivor count: 0 of 6

## Cc1ccc(Nc2cc(C)nc(N)n2)cc1
dose: 50.0 mg/kg/injection, schedule: Q01DX Z (ip), vehicle: methylcellulose (MC)
  survivor count: 0 of 6
dose: 100.0 mg/kg/injection, schedule: Q01DX Z (ip), vehicle: methylcellulose (MC)
  survivor count: 0 of 6
dose: 200.0 mg/kg/injection, schedule: Q01DX Z (ip), vehicle: methylcellulose (MC)
  survivor count: 0 of 6

## N#Cc1cn(C2OC(CO)C(O)C2O)c2ncnc(NC(=O)c3ccccc3)c12 (stereo unspecified)
dose: 25.0 mg/kg/injection, schedule: Q01DX009 (ip), vehicle: other
  survivor count: 0 of 4
dose: 50.0 mg/kg/injection, schedule: Q01DX009 (ip), vehicle: other
  survivor count: 0 of 4
dose: 100.0 mg/kg/injection, schedule: Q01DX009 (ip), vehicle: other
  survivor count: 0 of 4
dose: 200.0 mg/kg/injection, schedule: Q01DX009 (ip), vehicle: other
  survivor count: 0 of 4
dose: 400.0 mg/kg/injection, schedule: Q01DX009 (ip), vehicle: other
  survivor count: 0 of 4

## CCCCOC(=O)c1[nH]cnc1/N=N/N(C)CCCC
[7]
  survivor count: 1 of 6

## O=C(Nc1cccc(C(F)(F)F)c1)Nc1ccc2sc(=S)[nH]c2c1
dose: 25.0 mg/kg/injection, schedule: Q01DX009 (ip), vehicle: saline with Tween-80
  survivor count: 6 of 6
dose: 100.0 mg/kg/injection, schedule: Q01DX009 (ip), vehicle: saline with Tween-80
  survivor count: 6 of 6
dose: 200.0 mg/kg/injection, schedule: Q01DX009 (ip), vehicle: saline with Tween-80
  survivor count: 6 of 6

## Cn1c(=O)cc(CCl)c2ccccc21
dose: 200.0 mg/kg/injection, schedule: Q01DX001 (ip), vehicle: other
  survivor count: 0 of 4
[7]
  survivor count: 0 of 4

## NP(Cl)(c1ccccc1)(c1ccccc1)c1ccccc1
dose: 1.56 mg/kg/injection, schedule: Q04DX003 (ip), vehicle: Klucel (hydroxypropylcellulose) (HPC)
  survivor count: 0 of 6
dose: 3.13 mg/kg/injection, schedule: Q04DX003 (ip), vehicle: Klucel (hydroxypropylcellulose) (HPC)
  survivor count: 0 of 6
dose: 6.25 mg/kg/injection, schedule: Q04DX003 (ip), vehicle: Klucel (hydroxypropylcellulose) (HPC)
  survivor count: 0 of 6
dose: 12.5 mg/kg/injection, schedule: Q04DX003 (ip), vehicle: Klucel (hydroxypropylcellulose) (HPC)
  survivor count: 0 of 6
dose: 25.0 mg/kg/injection, schedule: Q04DX003 (ip), vehicle: Klucel (hydroxypropylcellulose) (HPC)
  survivor count: 0 of 6
dose: 50.0 mg/kg/injection, schedule: Q04DX003 (ip), vehicle: Klucel (hydroxypropylcellulose) (HPC)
  survivor count: 0 of 6
dose: 100.0 mg/kg/injection, schedule: Q04DX003 (ip), vehicle: Klucel (hydroxypropylcellulose) (HPC)
  survivor count: 0 of 6
[1]
  survivor count: 0 of 6
[2]
  survivor count: 0 of 6

## CC1=C(N2CC2)C(=O)c2ccccc2C1=O
dose: 200.0 mg/kg/injection, schedule: Q01DX001 (ip), vehicle: Klucel (hydroxypropylcellulose) (HPC)
  survivor count: 0 of 6
dose: 400.0 mg/kg/injection, schedule: Q01DX001 (ip), vehicle: Klucel (hydroxypropylcellulose) (HPC)
  survivor count: 0 of 6

## Cc1ccnc2c(N)cccc12
dose: 150.0 mg/kg/injection, schedule: Q01DX001 (ip), vehicle: saline
  survivor count: 2 of 6
dose: 300.0 mg/kg/injection, schedule: Q01DX001 (ip), vehicle: saline
  survivor count: 0 of 6

## C(OC[C@H]1CC[C@@H](COCC2CO2)O1)C1CO1 (stereo partly specified)
dose: 180.0 mg/kg/injection, schedule: Q01DX007 (ip), vehicle: saline
  T/C: 129 % of control
dose: 300.0 mg/kg/injection, schedule: Q01DX009 (ip), vehicle: saline
  T/C: 138 % of control
[8]
  T/C: 125 and 136 % of control
dose: 450.0 mg/kg/injection, schedule: Q01DX009 (ip), vehicle: saline
  T/C: 136 % of control
dose: 600.0 mg/kg/injection, schedule: Q01DX001 (ip), vehicle: saline
  T/C: 126 % of control

## O=C(Nc1ccc2c(c1)Cc1cccc(NC(=O)C(Cl)Cl)c1-2)C(Cl)Cl
[3]
  survivor count: 6 of 6

## Nc1cccc(-c2csc(N)n2)c1
dose: 400.0 mg/kg/injection, schedule: Q01DX001 (ip), vehicle: carboxymethylcellulose (CMC)
  survivor count: 2 of 4

## [O-][n+]1ccc2ccccc2c1
dose: 400.0 mg/kg/injection, schedule: Q04DX002 (ip), vehicle: Klucel (hydroxypropylcellulose) (HPC)
  survivor count: 1 of 3
[9]
  survivor count: 0 of 6

## O=C(O)c1cc(O)ccc1O
[6]
  survivor count: 3 of 6

## COc1ccc(CCNC2CC3CCC2(C)C3(C)C)cc1OC (stereo unspecified)
[8]
  survivor count: 0 of 3

## CC(C)=CCC(C#N)(CCN1CCCC1)c1cccc2ccccc12 (stereo unspecified)
[3]
  survivor count: 5 of 6
[4]
  survivor count: 0 of 6
[5]
  survivor count: 0 of 6

## CC1=CC(C)(C(Cl)(Cl)Cl)C=C/C1=N\OC(C)C(=O)O (stereo unspecified)
dose: 300.0 mg/kg/injection, schedule: Q01DX001 (ip), vehicle: carboxymethylcellulose (CMC)
  survivor count: 2 of 6

## O=[N+]([O-])/C=C\c1ccc(/C=C/[N+](=O)[O-])cc1
dose: 6.0 mg/kg/injection, schedule: Q01DX009 (ip), vehicle: other
  survivor count: 2 of 6
dose: 12.5 mg/kg/injection, schedule: Q04DX003 (ip), vehicle: other
  survivor count: 1 of 6
dose: 25.0 mg/kg/injection, schedule: Q04DX003 (ip), vehicle: other
  survivor count: 1 of 6
dose: 50.0 mg/kg/injection, schedule: Q04DX003 (ip), vehicle: other
  survivor count: 1 of 6
dose: 100.0 mg/kg/injection, schedule: Q04DX003 (ip), vehicle: other
  survivor count: 0 of 6
dose: 200.0 mg/kg/injection, schedule: Q04DX003 (ip), vehicle: other
  survivor count: 0 of 6
dose: 400.0 mg/kg/injection, schedule: Q04DX003 (ip), vehicle: other
  survivor count: 0 of 6

## CCC(C)N (stereo unspecified)
[9]
  survivor count: 3 of 6
